Our source for the concentration values is US7572888B2, “Methods of assaying receptor activity and constructs useful in such methods” (Duke University, priority 1997, dated 2009).

The nature of this data set: in vivo. As to conditions: mouse, whole blood, 10 mg/kg. The method, then:
After 30 minutes or 2 hours, wild-type mice were killed and blood was collected in vials containing sodium fluoride and potassium-oxalate.

Where [1] appears, read: C57BL/6 x 129SvJ (wild-type of the βarr2 knockout line), sc.

The structures appear in SMILES notation.

Molecule `CN1CC[C@]23c4c5ccc(O)c4O[C@H]2[C@@H](O)C=C[C@H]3[C@H]1C5` [morphine] gave a concentration at 30 min under setting [1] of 1500 ng/mL. For the same molecule, the concentration at 2 h by setting is: under setting [1], 83 ng/mL; (C57BL/6 x 129SvJ (βarr2 knockout), subcutaneous) 93 ng/mL.
